The record followed here is paper PMC12040169 (PLOS Biology, 2025).

Some of the results follow.

In the experiment the test system is T1, CTL2-GFP (C. trachomatis L2/434/Bu, GFP-expressing).
T1 construct: L2/434/Bu, GFP-expressing
More on the design: species or system HeLa; Intracellular C. trachomatis growth in HeLa cells, bulk GFP fluorescence relative to DMSO. As to conditions: bulk GFP, single well; 28.5 h, 10 µM; inhibitor.
Regarding `Cc1cc(NC(=O)Cc2ccc(Cl)c(Cl)c2)c2ccccc2n1` [CBK116266], the “% of control remaining” value is on record as 109.744%.

With `O=C1NC2(CCCN(C(=O)c3ccco3)C2)Nc2ccccc21` (stereo not drawn) [CBK284803], the “% of control remaining” value came to 110.926%.

`CCCOC(=O)Cn1cnc2sc(C)c(C)c2c1=O` [CBK304371]: the “% of control remaining” value came out at 130.16%. Turning to `CCN(Cc1ccccc1)C(=O)NCCc1c[nH]cn1` [CBK155220], the “% of control remaining” value was found to be 117.505%. In the case of `N#Cc1cccc(C(=O)N2CCCC3(CCN(Cc4ccccc4)C3)C2)c1` (stereo not drawn) [CBK136893] it was 118.271%; in that of `Cc1ccc(C2(C(=O)N3CCC(O)(c4ccccn4)CC3)CC2)cc1` [CBK283754], 116.104%; in that of `Cc1nc2ccccn2c1-c1csc(Nc2ccc(C(=O)O)cc2)n1` [CBK261634B], 91.3938%. For the compound `CCCC(=O)NC(c1ccc(OC)cc1)c1cc(Cl)c2cccnc2c1O` (stereo not drawn) [CBK293944], the “% of control remaining” value is given as 133.444%. In the case of `CC(C)(C)Nc1nc(OCC#N)nc(N2CCCCC2)n1` [CBK269483] it was 90.3597%; in that of `CCCn1ncc(C(=O)NC(CC)c2cn3cccnc3n2)c1C` (stereo not drawn) [CBK307640], 137.597%. The same measure for `Cn1nc(-c2ccc(F)cc2)n(-c2ccncc2)c1=O` [CBK282294]: 151.639%; for `CCC(Sc1nc(N)cc(=O)[nH]1)C(=O)Nc1ccc2ccccc2c1` (stereo not drawn) [CBK265761]: 77.83%. As to `OC[C@@H](c1ccccc1)N1CC[C@H]2c3ccc(Br)cc3CC[C@H]21` [CBK017507C], the “% of control remaining” value amounted to 100%. The same measure for `O=C(c1ccco1)N1CCC2(CC1)Nc1cccnc1-n1cccc12` [CBK284506]: 90.4155%; for `CN(CC(=O)NCc1ccco1)C1CCCCCC1` [CBK254305]: 142.937%.

`Cc1ccccc1-n1c(Cc2ccccc2)nc2c(cnn2-c2ccccc2)c1=O` [CBK262310]: the “% of control remaining” value stood at 99.8029%. Turning to `Cc1nc(S(=O)(=O)Nc2nc(C(C)C)ns2)cn1C` [CBK051323], the “% of control remaining” value was determined as 95.2145%. With `CCOc1cc(C)c(C(C)C)cc1S(=O)(=O)NCc1ccccn1` [CBK268080], the “% of control remaining” value was found to be 113.771%. For `O=C1c2ccccc2C(=O)N1CCc1nc2c3c4c(sc3ncn2n1)CCCCC4` [CBK268327], the “% of control remaining” value is recorded as 142.619%. Consider `CCN(C)C(=O)N1CCN(CCCC(c2ccc(F)cc2)c2ccc(F)cc2)CC1` [CBK024910C], for which the “% of control remaining” value is 106.68%. The same measure for `OC1(c2cccnc2F)CCN(Cc2cccc(F)c2)CC1` [CBK284373]: 111.846%; for `O=C1Nc2ccccc2SC1(O)C(F)(F)F` (stereo not drawn) [CBK025554]: 102.946%; for `O=C(NN1C(=O)c2ccccc2C1=O)c1cc(C(=O)NN2C(=O)c3ccccc3C2=O)cc(N2C(=O)c3ccccc3C2=O)c1` [CBK262100]: 96.2878%.

Take `CCOc1ccc(C(CC(=O)O)C(=O)O)cc1` (stereo not drawn) [CBK261363]: the “% of control remaining” value is on record as 92.5414%.

As for `COC(=O)Nc1nc(Cl)cc(Cl)n1` [CBK027433], the “% of control remaining” value was 140.519%.

With `Brc1ccc(CSc2nnc[nH]2)cc1` [CBK026361], the “% of control remaining” value amounted to 114.105%. Take `CS(=O)(=O)N1CCN(c2nc(C(F)(F)F)nc3ccsc23)CC1` [CBK304594]: the “% of control remaining” value was 99.071%. In the case of `CN1CCN(c2ccccc2NC(=S)NC(=O)c2ccc(N3CCCCC3)c([N+](=O)[O-])c2)CC1` [CBK268520C] it was 72.639%; in that of `Cc1ccc(-c2cc(C(=O)Nc3cccnc3)n[nH]2)c(O)c1C` [CBK288158], 100.684%. For `C(=C/c1ccccc1)/C=N/c1ccc2nc(-c3ccc(/N=C/C=C/c4ccccc4)cc3)[nH]c2c1` [CBK261656], the “% of control remaining” value came to 100%. The same measure for `COCCc1nsc(N2CCC(N(C)c3cccnn3)CC2)n1` [CBK304701]: 111.955%. In the case of `CC1CC(C)CN(C(=O)Cn2ncc3cccn3c2=O)C1` (stereo not drawn) [CBK283805] it was 136.441%.

In the case of `C=CCNS(=O)(=O)c1ccc(NC(=O)Nc2ccc(Cl)cc2)cc1` [CBK269315], the “% of control remaining” value is on record as 85.2439%.

For the compound `COc1ncccc1-c1csc(C2CN3CCCC3CO2)n1` (stereo not drawn) [CBK304110], the “% of control remaining” value is listed as 133.238%.

Regarding `Cc1ccccc1C(=O)Nc1cccc(NC(=O)c2nc[nH]n2)c1` [CBK267108], the “% of control remaining” value is 186.675%. In the case of `CNC(=O)c1ccc(-c2cc(OC)c(OC)c(OC)c2)nc1NCC1CC1` [CBK106312] it was 109.422%; in that of `Nc1cccc(-c2ccc(NCc3cc(F)c(F)c(F)c3)nc2)c1` [CBK036985], 117.557%; in that of `O=C(O)c1ccc(NC(=O)c2ncn(-c3ccccc3)n2)cc1` [CBK269445], 126.647%.

`COc1ccc(-c2cnc3[nH]c(=O)n([C@H](C)c4ccccc4)c3n2)c(OC)c1OC` [CBK064236]: the “% of control remaining” value is given as 122.59%. The same measure for `CCOC(=O)Cc1csc(NS(=O)(=O)c2ccc(OC(F)(F)F)cc2)n1` [CBK000852]: 87.8397%.

Regarding `O=C(Nc1cccc(NC(=S)NC(=O)c2ccc(Cl)cc2Cl)c1)c1ccccc1F` [CBK264828], the “% of control remaining” value was 109.629%. Take `O=C(COc1ccc(S(=O)(=O)N2CCCCC2)cc1Cl)NCc1ccccn1` [CBK269253]: the “% of control remaining” value stood at 140.593%. Turning to `FC(F)(F)c1cccc(-c2cn3ccnc3c(NCc3ccncc3)n2)c1` [CBK066632], the “% of control remaining” value is given as 87.7054%. The same measure for `N/C(=N\OCC(=O)Nc1cccc([N+](=O)[O-])c1)c1nonc1N` [CBK262044]: 107.27%; for `CCN(CC)CC(c1ccccc1)C(O)c1ccc(OC)cc1` (stereo not drawn) [CBK262074C]: 110.293%; for `COc1ccc(NC(=O)CN2CCN(c3ccccc3OC)CC2)c([N+](=O)[O-])c1` [CBK269188]: 100.554%. For `O=C(O)CC(CP(c1ccccc1)c1ccccc1)C(=O)O` (stereo not drawn) [CBK260931], the “% of control remaining” value worked out at 115.841%. As to `Cc1ccc(OCc2occc2C(=O)N2CCC(O)(CN(C)C)C2)cc1` (stereo not drawn) [CBK307341], the “% of control remaining” value was 135.899%.

Turning to `Cc1ccc(S(=O)(=O)N2CC[C@H](c3nnc(-c4ccccc4)o3)C2)cc1` [CBK289405], the “% of control remaining” value is 126.459%. The same measure for `CCOC(=O)CN1CCN(S(=O)(=O)c2cc(Cl)ccc2Cl)CC1` [CBK044628]: 147.356%. With `Cc1cc(=O)nc(SC(C)C(=O)O)[nH]1` (stereo not drawn) [CBK264630], the “% of control remaining” value stood at 100%.
